From patent publication US20110280866A1 come the findings set out here.

Results are given in words; binding and its absence hold for the method and conditions named. Some binding calls cover weakened binding; strength is not graded here. Where a sequence is shown, tags or fusion partners need not be part of it.

This test concerns the target T1, fusion protein between GST and CD-160 (Homo sapiens (Human)) (UniProt O95971).
T1 sequence: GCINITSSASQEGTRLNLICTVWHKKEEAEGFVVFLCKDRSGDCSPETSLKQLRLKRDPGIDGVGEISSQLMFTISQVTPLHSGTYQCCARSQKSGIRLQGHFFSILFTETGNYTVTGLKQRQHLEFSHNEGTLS
In words: indirect immunofluorescence staining and flow cytometry, screening of hybridoma supernatants. Background: Flow cytometry measures light scatter and fluorescence of single cells or particles in a stream.

B1: mouse CD160 antibody (anti-CD160 antibody having anti-angiogenesis properties) (antibody, V domains shown)
VH: QVHLQQSGAELARPGASVKLSCKASGYTFTDYWMQWIKQRPGQGLEWIGSIYPGDDDARYTQKFRGKATLTADKSSSTAYMQLSSLASEDSAVYYCARRGIAAVVGGFDYWGQGTTLTVSS
VL: DIVLTQSPATLSVTPGNSVSLSCRASQSISNHLHWYQQKSHESPRLLIKYASQSISGIPSRFSGSGSGTDFTLSINSVETEDFGMYFCQQSNSWPLTFGAGTKLELKR
Regarding B1, the binding entry is reported as “binds”.
